Assay results as given in publication PMC7819943, “Rice protein-binding microarrays: a tool to detect cis-acting elements near promoter regions in rice”.
Some of the results follow.

Protein sequences, listed by entry. Tags and fused reporters are not part of them.
UniProt Q0JBA9, entry or part of it: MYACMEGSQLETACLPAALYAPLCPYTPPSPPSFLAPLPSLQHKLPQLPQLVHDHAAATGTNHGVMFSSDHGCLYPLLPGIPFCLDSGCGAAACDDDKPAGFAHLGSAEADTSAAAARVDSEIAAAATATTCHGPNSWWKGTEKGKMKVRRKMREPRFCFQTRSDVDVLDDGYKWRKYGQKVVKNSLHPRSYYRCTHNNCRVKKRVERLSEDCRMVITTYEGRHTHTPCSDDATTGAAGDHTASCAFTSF

Each sequence was assayed against OsWRKY34 (Oryza sativa, UniProt Q0JBA9 1-250) (assay: protein-binding microarray (RPBM); PBS, 2% BSA, 51.3 ng/ul salmon testes DNA, 50 uM zinc acetate, 200 nM TF, 25 C, 1 h; high values mean tight binding). Conditions: protein: recombinant; tags: N-terminal polyhistidine and DsRed monomer fusion (pET32a); label: CyDye5-dUTP incorporated in the synthesized complementary strand; 3' TTTTT single-stranded linker to array surface; dsDNA, one strand shown.
Summary of the method: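 The binding signal is fluorescence intensity per feature, in arbitrary units, read on an Axon 4000B scanner. Polyhistidine- and DsRed-tagged transcription factors (N-terminal fusions) from E. coli BL21-CodonPlus were purified on Ni–NTA and applied at 200 nM for 1 h at 25 °C to a double-stranded, BSA-blocked custom Agilent array in buffer with 50 µM zinc acetate.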

First: GACCATTCTGTTTCGTACAATAGTATTATCTTTTTTTTATCGGAGTCACCTAGTGCAG
Second: GGCCCTAACCCCACCGACCACCCGCGGCCCTCGTCTTCCTCGGAGTCACCTAGTGCAG
The binding signal of the first is higher: 12600 fluorescence intensity (a.u.) for the first, 10200 fluorescence intensity (a.u.) for the second.

First: GGCATATCTGAACTGAGTTCATATCAAGCTTTCAATCTCTCGGAGTCACCTAGTGCAG
Second: TCAATTATTCAGGGTTTCTTCTGGTTCTTGTCTCGCCATGCGGAGTCACCTAGTGCAG
The binding signal of the first is lower: 8300 fluorescence intensity (a.u.) for the first, 8630 fluorescence intensity (a.u.) for the second.

First: CACTATAGATATATGGATGTGTGTTGGTCTTTGATGTAGTCGGAGTCACCTAGTGCAG
Second: TATATAGCTAGGTACCTCTTCAGGGTTTCTTGGGTTTTGACGGAGTCACCTAGTGCAG
The binding signal of the first is lower: 8160 fluorescence intensity (a.u.) for the first, 11300 fluorescence intensity (a.u.) for the second.

Compared with “TATGCTGTTGTATTTTGTTTTTTTATCTCAACTAATATTTCGGAGTCACCTAGTGCAG”, “ATCCGATCTCCGGCAGTTTCCCCAAATTTTGTTCGAATATCGGAGTCACCTAGTGCAG” is higher in binding signal: 8480 fluorescence intensity (a.u.) for the first, 8810 fluorescence intensity (a.u.) for the second.

Going from “CTCCCACTGTGACAGTCTCGTCACCGCACCACCTCACCTTCGGAGTCACCTAGTGCAG” to “GCGGTTTCTAGGTAAGTTATGAAATTAGTTTTGTCATTCGCGGAGTCACCTAGTGCAG”, the binding signal rises from 8420 fluorescence intensity (a.u.) to 9590 fluorescence intensity (a.u.).

First: ACATTGTTCAGTCCACGTTTGCTTCGGTTCGCTTTTCCGTCGGAGTCACCTAGTGCAG
Second: GGGTAGGGGTGGTAATTGGGAGGGAATTCCTTCTTTACTTCGGAGTCACCTAGTGCAG
The binding signal of the first is lower: 11300 fluorescence intensity (a.u.) for the first, 13100 fluorescence intensity (a.u.) for the second.

Compared with “ACTTTGTCCACGCCATCCTCCAAGTCTCCAAACCTACACACGGAGTCACCTAGTGCAG”, “CAAAAACATTCTCAACCTTTTTTTCATTTAGTTAGTACAACGGAGTCACCTAGTGCAG” is lower in binding signal: 9600 fluorescence intensity (a.u.) for the first, 8970 fluorescence intensity (a.u.) for the second.

Going from “GCTTGCCAGCGCGCTACTCCATCCTCTTGCATAAATAACGCGGAGTCACCTAGTGCAG” to “GGCGTTCTTCTTGATGTCTCCTTTCTGTCCTTTGGATGGTCGGAGTCACCTAGTGCAG”, the binding signal falls from 10700 fluorescence intensity (a.u.) to 10200 fluorescence intensity (a.u.).

Going from “CATCACCGTCCTCTGCGCGCATTGATATTGTGTCGTTGGACGGAGTCACCTAGTGCAG” to “CCCGTTGACCCAAATTTTCGTTCTCCTCACCGAGTATAGTCGGAGTCACCTAGTGCAG”, the binding signal rises from 9540 fluorescence intensity (a.u.) to 17200 fluorescence intensity (a.u.).

First: TCTTTGTGTCAAATCGGACTTTCTTTTTTCTTGTTTTTATCGGAGTCACCTAGTGCAG
Second: ATACCACCATGGAAGCTCATCTCGCTCCGTGTGCCTAGATCGGAGTCACCTAGTGCAG
The binding signal of the first is higher: 10400 fluorescence intensity (a.u.) for the first, 8270 fluorescence intensity (a.u.) for the second.

Compared with “GCCCAGCCCAGGCCCACCTTATGTTTTGTTGCATCTCTACCGGAGTCACCTAGTGCAG”, “CCCTCCCTGGCCGTCGTGCCCGCCGCTGCTCGCCTTCGGCCGGAGTCACCTAGTGCAG” is lower in binding signal: 10700 fluorescence intensity (a.u.) for the first, 10100 fluorescence intensity (a.u.) for the second.

First: GCACACCGCTTTCATGGGCCACACATGCCATATCCTAATTCGGAGTCACCTAGTGCAG
Second: TAAAGATGTCTTTTGTTGGGTGGGAAATCATTTTCATTTCCGGAGTCACCTAGTGCAG
The binding signal of the first is lower: 10700 fluorescence intensity (a.u.) for the first, 13100 fluorescence intensity (a.u.) for the second.

First: CCTTATTTTTGTTATGATAACTAATATGTTCAGTGGTTTTCGGAGTCACCTAGTGCAG
Second: TGGGTGGTCAAGATTTATGATATTGCGGTTAAAGAATGTGCGGAGTCACCTAGTGCAG
The binding signal of the first is lower: 8510 fluorescence intensity (a.u.) for the first, 9290 fluorescence intensity (a.u.) for the second.

First: CGTTTTTGTGTCTTTCATTTGAGGAGGAACTGCGATTCTTCGGAGTCACCTAGTGCAG
Second: GGAAGATCCAGGCGACGCACAGCACCGGCATCCGGATCCGCGGAGTCACCTAGTGCAG
The binding signal of the first is lower: 9400 fluorescence intensity (a.u.) for the first, 9950 fluorescence intensity (a.u.) for the second.

First: TCCACGTACGTACGCCCGACGCCCACCGGTCCGCGTCACGCGGAGTCACCTAGTGCAG
Second: CCACTCCATCCCGTGTGCCGCCCGCCTCAAAACCAACCGCCGGAGTCACCTAGTGCAG
The binding signal of the first is lower: 8120 fluorescence intensity (a.u.) for the first, 9000 fluorescence intensity (a.u.) for the second.

First: ATCTCATCCATCCATTTTCCAAATCAAGGGTACATATCAACGGAGTCACCTAGTGCAG
Second: CGGCGGGGATGAGGGAGAAGGGCGCGGGGCGACGGCGGCACGGAGTCACCTAGTGCAG
The binding signal of the first is higher: 9580 fluorescence intensity (a.u.) for the first, 8090 fluorescence intensity (a.u.) for the second.

Going from “AGTACTATTCAAAACAATTTTGCTAACGTATTTGTCTACACGGAGTCACCTAGTGCAG” to “CTCAAAGTTGGCAACTCTCAAACTCGGTTTATCTCCTTGACGGAGTCACCTAGTGCAG”, the binding signal falls from 8970 fluorescence intensity (a.u.) to 8530 fluorescence intensity (a.u.).

First: TTTTTTGGCTTAATTACAGTTTTTTTGTGTGTTTTTTCCCCGGAGTCACCTAGTGCAG
Second: CGTCACTTTCTTTCGTTGTTGTTTTTCTCGATAGGCTAATCGGAGTCACCTAGTGCAG
The binding signal of the first is higher: 10000 fluorescence intensity (a.u.) for the first, 8990 fluorescence intensity (a.u.) for the second.

First: GCGGGGCGGTGACAACGACGGCGGTGCGGGGCGGTGGTGACGGAGTCACCTAGTGCAG
Second: TGATTTGGTGAGCTCGAACCATCCGTAAGGTCACCCGTCTCGGAGTCACCTAGTGCAG
The binding signal of the first is higher: 10300 fluorescence intensity (a.u.) for the first, 8830 fluorescence intensity (a.u.) for the second.

Going from “CCAGTGACTAACACCGACACAGTTCGCGCCAGGTTATAACCGGAGTCACCTAGTGCAG” to “GTTTACCAACCACCTGCTCTTCTCGGCCAGTTCGCTGCGGCGGAGTCACCTAGTGCAG”, the binding signal rises from 8200 fluorescence intensity (a.u.) to 8680 fluorescence intensity (a.u.).

First: AATGTTCTATCGTTTCTGTATTGTCGCTCAGATGAATCGGCGGAGTCACCTAGTGCAG
Second: CATCATCTCCTTCCTACTCGTACACGCTAGGCTTTGCCGCCGGAGTCACCTAGTGCAG
The binding signal of the first is higher: 9390 fluorescence intensity (a.u.) for the first, 8250 fluorescence intensity (a.u.) for the second.
